Test results published in article PMC11252128.
No constants are given. Whether binding was seen depends on the method and setting. A result given as binding can be weak or reduced; the word gives no strength. For part of these data: In cells and extracts the contact can be indirect. For part of these data: Tags and fused reporters may be left off the sequences shown.

Experiments:
[1] = target: MHZ3-Cub (rice (Oryza sativa L.)); test: two-hybrid; split-ubiquitin membrane yeast two-hybrid (MbYTH), yeast NMY51; bait MHZ3-Cub, preys NubG fusions; growth on SD-Trp-Leu-His after 5 days at 30 °C
[2] = target: MHZ3-GFP (rice (Oryza sativa L.)); test: co-IP; rice protoplasts (Osetr2 mhz3 or Osers2 mhz3) co-transfected, 16 h at 28 °C in the dark; IP buffer 50 mM HEPES pH 7.5, 150 mM NaCl, 0.5 mM EDTA, 0.5% NP-40; GFP-Trap_A beads 1 h at 4 °C; blots anti-GFP, anti-c-Myc, anti-FLAG
[3] = target: MHZ3-Nluc (rice (Oryza sativa L.)); test: split reporter; luciferase complementation imaging (LCI) in N. benthamiana leaves, Cluc and Nluc fusions co-infiltrated; also with or without 2 h of 10 μL/L ethylene after 48 h at 22 °C

| Binder | binding [1] | binding [2] | binding [3] |
| --- | --- | --- | --- |
| NubG-OsETR2 (receptor, UniProt Q7XX84 1-763) MPPIPSLWIRVFFSWLLLSLPAAAAADFSHCGGCDDGDGGGGIWSTDNILQCQRVSDFLIAMAYFSIPLELLYFATCSDLFPLKWIVLQFGAFIVLCGLTHLITMFTYEPHSFHVVLALTVAKFLTALVSFATAITLLTLIPQLLRVKVRENFLRIKARELDREVGMMKRQEEASWHVRMLTHEIRKSLDRHTILYTTMVELSKTLELQNCAVWMPSESGSEMILTHQLRQMETEDSNSLSIAMDNPDVLEIKATKDAKVLAADSALGIASRGKLEAGPVAAIRMPMLKASNFKGGTPEVMETSYAILVLVLPEDGSLGWGEEELEIVEVVADQVAVALSHAAVLEESQLMREKLAAQHRDLLRAKHETTMATEARNSFQTAMYDGMRRPMHSILGLVSMMQQENMNPEQRLVMDAIVKTSSVASTLMNDVMQTSTVNREYLSLVRRAFNLHSLVKEAISVVRCLTGCKGIDFEFEVDNSLPERVVGDEKRVFHIVLHMVGTLIQRCNAGCLSLYVNTYNEKEERHNQDWMLRRANFSGSYVCVKFEIRIRESRGNLLSSSSSRRLQGPNSTSSEMGLSFNMCKKIVQMMNGNIWSVSDSKGLGETIMLALQFQLQHVTPVSGASSDLFRSAPIPNFNGLQVILVDSDDTNRAVTHKLLEKLGCLVLSVTSGIQCINSFASAESSFQLVVLDLTMRTMDGFDVALAIRKFRGNCWPPLIVALAASTDDTVRDRCQQAGINGLIQKPVTLAALGDELYRVLQNN | binds |  |  |
| NubG-OsERS2 (receptor, UniProt Q0DKM0 1-635) MDGSCDCIEPLWQADDLLVKYQYISDFFIALAYFSIPLELIYFVKKSAFFPYRWVLIQFGAFIVLCGATHLINLWTFAIYTKTIAVVLTVAKAATAVVSCITALMLVHIIPDLLNVKLRERFLKDKADELDREMGIIRTQEETGRHVHMLTHEIRSTLDRHTILRTTLVELGRTLVLAECALWMPTRSGSALQLSHTIYNSAAIGSVVPINLPIVSKVFNSNRVVKIPHTSPLASITADKSRYVPPEVVAIRVPLLHLTNFQINDWPELSAKSFAVMVLMLPPDSAREWRPHERELVEVVADQVAVALSHAAILEESMRARDLLMEQNIALDAARREAEMAICARNDFLAVMNHEMRTPMRAIVSLSSLLLETNLSAEQRLMVETILKSSDLLATLTNDVLDVSKLENGSLELEIAPFNLHSTFTDVVNLIKPVAACKRLSVMVTLAPELPLHAIGDQKRLMQIILNVAGNSIKFTKEGHVSITASMARPDALRGPHEPDYHPVVSDGFFYLAVQVKDTGCGISPQDMPHTFRKFAHPENAGKWNSGSGLGLALSRRFVSLMEGNIWLESEGVGKGCTAMFFVKLGMPEKPNANLRRMAPHPLQPNQGAGGPDALSISIMDSNPRVPRVRYQSSV | binds |  |  |
| OsETR2-Myc (receptor, UniProt Q7XX84 1-763) MPPIPSLWIRVFFSWLLLSLPAAAAADFSHCGGCDDGDGGGGIWSTDNILQCQRVSDFLIAMAYFSIPLELLYFATCSDLFPLKWIVLQFGAFIVLCGLTHLITMFTYEPHSFHVVLALTVAKFLTALVSFATAITLLTLIPQLLRVKVRENFLRIKARELDREVGMMKRQEEASWHVRMLTHEIRKSLDRHTILYTTMVELSKTLELQNCAVWMPSESGSEMILTHQLRQMETEDSNSLSIAMDNPDVLEIKATKDAKVLAADSALGIASRGKLEAGPVAAIRMPMLKASNFKGGTPEVMETSYAILVLVLPEDGSLGWGEEELEIVEVVADQVAVALSHAAVLEESQLMREKLAAQHRDLLRAKHETTMATEARNSFQTAMYDGMRRPMHSILGLVSMMQQENMNPEQRLVMDAIVKTSSVASTLMNDVMQTSTVNREYLSLVRRAFNLHSLVKEAISVVRCLTGCKGIDFEFEVDNSLPERVVGDEKRVFHIVLHMVGTLIQRCNAGCLSLYVNTYNEKEERHNQDWMLRRANFSGSYVCVKFEIRIRESRGNLLSSSSSRRLQGPNSTSSEMGLSFNMCKKIVQMMNGNIWSVSDSKGLGETIMLALQFQLQHVTPVSGASSDLFRSAPIPNFNGLQVILVDSDDTNRAVTHKLLEKLGCLVLSVTSGIQCINSFASAESSFQLVVLDLTMRTMDGFDVALAIRKFRGNCWPPLIVALAASTDDTVRDRCQQAGINGLIQKPVTLAALGDELYRVLQNN |  | binds |  |
| OsERS2-Myc (receptor, UniProt Q0DKM0 1-635) MDGSCDCIEPLWQADDLLVKYQYISDFFIALAYFSIPLELIYFVKKSAFFPYRWVLIQFGAFIVLCGATHLINLWTFAIYTKTIAVVLTVAKAATAVVSCITALMLVHIIPDLLNVKLRERFLKDKADELDREMGIIRTQEETGRHVHMLTHEIRSTLDRHTILRTTLVELGRTLVLAECALWMPTRSGSALQLSHTIYNSAAIGSVVPINLPIVSKVFNSNRVVKIPHTSPLASITADKSRYVPPEVVAIRVPLLHLTNFQINDWPELSAKSFAVMVLMLPPDSAREWRPHERELVEVVADQVAVALSHAAILEESMRARDLLMEQNIALDAARREAEMAICARNDFLAVMNHEMRTPMRAIVSLSSLLLETNLSAEQRLMVETILKSSDLLATLTNDVLDVSKLENGSLELEIAPFNLHSTFTDVVNLIKPVAACKRLSVMVTLAPELPLHAIGDQKRLMQIILNVAGNSIKFTKEGHVSITASMARPDALRGPHEPDYHPVVSDGFFYLAVQVKDTGCGISPQDMPHTFRKFAHPENAGKWNSGSGLGLALSRRFVSLMEGNIWLESEGVGKGCTAMFFVKLGMPEKPNANLRRMAPHPLQPNQGAGGPDALSISIMDSNPRVPRVRYQSSV |  | binds |  |
| Cluc-OsETR2 (receptor, UniProt Q7XX84 1-763) MPPIPSLWIRVFFSWLLLSLPAAAAADFSHCGGCDDGDGGGGIWSTDNILQCQRVSDFLIAMAYFSIPLELLYFATCSDLFPLKWIVLQFGAFIVLCGLTHLITMFTYEPHSFHVVLALTVAKFLTALVSFATAITLLTLIPQLLRVKVRENFLRIKARELDREVGMMKRQEEASWHVRMLTHEIRKSLDRHTILYTTMVELSKTLELQNCAVWMPSESGSEMILTHQLRQMETEDSNSLSIAMDNPDVLEIKATKDAKVLAADSALGIASRGKLEAGPVAAIRMPMLKASNFKGGTPEVMETSYAILVLVLPEDGSLGWGEEELEIVEVVADQVAVALSHAAVLEESQLMREKLAAQHRDLLRAKHETTMATEARNSFQTAMYDGMRRPMHSILGLVSMMQQENMNPEQRLVMDAIVKTSSVASTLMNDVMQTSTVNREYLSLVRRAFNLHSLVKEAISVVRCLTGCKGIDFEFEVDNSLPERVVGDEKRVFHIVLHMVGTLIQRCNAGCLSLYVNTYNEKEERHNQDWMLRRANFSGSYVCVKFEIRIRESRGNLLSSSSSRRLQGPNSTSSEMGLSFNMCKKIVQMMNGNIWSVSDSKGLGETIMLALQFQLQHVTPVSGASSDLFRSAPIPNFNGLQVILVDSDDTNRAVTHKLLEKLGCLVLSVTSGIQCINSFASAESSFQLVVLDLTMRTMDGFDVALAIRKFRGNCWPPLIVALAASTDDTVRDRCQQAGINGLIQKPVTLAALGDELYRVLQNN |  |  | binds |
| Cluc-OsERS2 (receptor, UniProt Q0DKM0 1-635) MDGSCDCIEPLWQADDLLVKYQYISDFFIALAYFSIPLELIYFVKKSAFFPYRWVLIQFGAFIVLCGATHLINLWTFAIYTKTIAVVLTVAKAATAVVSCITALMLVHIIPDLLNVKLRERFLKDKADELDREMGIIRTQEETGRHVHMLTHEIRSTLDRHTILRTTLVELGRTLVLAECALWMPTRSGSALQLSHTIYNSAAIGSVVPINLPIVSKVFNSNRVVKIPHTSPLASITADKSRYVPPEVVAIRVPLLHLTNFQINDWPELSAKSFAVMVLMLPPDSAREWRPHERELVEVVADQVAVALSHAAILEESMRARDLLMEQNIALDAARREAEMAICARNDFLAVMNHEMRTPMRAIVSLSSLLLETNLSAEQRLMVETILKSSDLLATLTNDVLDVSKLENGSLELEIAPFNLHSTFTDVVNLIKPVAACKRLSVMVTLAPELPLHAIGDQKRLMQIILNVAGNSIKFTKEGHVSITASMARPDALRGPHEPDYHPVVSDGFFYLAVQVKDTGCGISPQDMPHTFRKFAHPENAGKWNSGSGLGLALSRRFVSLMEGNIWLESEGVGKGCTAMFFVKLGMPEKPNANLRRMAPHPLQPNQGAGGPDALSISIMDSNPRVPRVRYQSSV |  |  | binds |
